Laboratory results: PubChem BioAssay AID2685 (National Center for Advancing Translational Sciences (NCATS), 2010)
The other results are listed elsewhere or left out. Further columns of the screen follow, without active or inactive calls. Compounds called inactive in the main read-out are mostly missing here. The note in brackets gives the kind of curve behind each potency; many fits are weak.

Experiment: qHTS Assay for Lipid Storage Modulators in Drosophila S3 Cells;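 on cell number change: cells counted by Cell Tracker Red CMTPX staining in the red channel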
Conditions: BODIPY lipid droplet fluorescence, 18-24 h; for cell number change: measured here: cell count max response, cells fed with added oleic acid
In short: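 Drosophila S3 cells got compounds at several concentrations plus oleic acid (400 uM solution). Laser-scanning cytometry with 488 nm excitation read lipid droplets at 500-530 nm and cells at 575-640 nm. Percent activity was relative to 20 uM Triacsin C.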

[1] = measured here: cell number channel AC50, cells fed with added oleic acid
[2] = measured here: lipid fluorescence (Fed channel) AC50, cells fed with added oleic acid

| Structure (SMILES) | cell number change [%] | AC50 [1] | AC50 [2] |
| --- | --- | --- | --- |
| CN(C)c1ccc(/C=C/c2c([N+](=O)[O-])c(=O)n(C)c(=O)n2C)cc1 | 231 | 29.1 µM [rising, single point] | 0.0731 µM [rising, full curve, poor fit] |
| Oc1ccc2ccccc2c1Br | -67.3 | 20.6 µM [falling, single point] | – |
| CCOC(=O)C1=C(C)NC(=O)NC1c1ccsc1 (centres undefined) | -16.5 | – | 3.66 µM [rising, single point] |
| O=C(Nc1ccccc1)c1cccc(C(=O)Nc2ccccc2)n1 | 41.7 | 32.6 µM [rising, single point] | 4.11 µM [falling, single point] |
| Cc1nc(N2CCN(c3ccccc3)CC2)[nH]c(=O)c1Cc1ccccc1 | -13 | – | 2.91 µM [falling, full curve, poor fit] |
| COc1ccc(/C=C2\SC(=O)N(CC(=O)Nc3ccc(O)cc3)C2=O)cc1OC | -8.38 | – | 11.6 µM [rising, partial curve, poor fit] |
| Cn1nnnc1SCC(=O)NCC(=O)c1ccccc1 | -12.7 | – | 5.8 µM [falling, single point] |
| O=C1c2ccccc2C(=O)N1CCCCSc1nc2ccccc2o1 | – | 1.84 µM [rising, partial curve] | 1.64 µM [rising, partial curve] |
| Cc1ccc(NC(=O)c2ccccn2)cc1S(=O)(=O)N1CCOCC1 | -20.6 | – | 0.58 µM [falling, single point] |
| CC1CCc2c(sc3nc(CN4CCN(S(=O)(=O)c5ccccc5[N+](=O)[O-])CC4)[nH]c(=O)c23)C1 (centres undefined) | -9.69 | – | 14.6 µM [falling, single point] |
| CCC1OC(c2ccc([N+](=O)[O-])cc2)=Nc2ccccc21 (centres undefined) | -3.67 | – | 20.6 µM [rising, partial curve] |
| CCOc1ccc(Cn2c3ccc(OC)cc3c3nc4ccccc4nc32)cc1OC | 48.1 | 29.1 µM [rising, single point] | 4.61 µM [falling, full curve, poor fit] |
| N#Cc1c(-c2ccccc2)nc(SCc2ccc([N+](=O)[O-])cc2)[nH]c1=O | 22.3 | – | 0.82 µM [rising, full curve, poor fit] |
| O=C(NCCCn1ccnc1)C1CC2CCC1C2 (centres undefined) | – | – | 0.731 µM [falling, full curve, poor fit] |
| CSc1ccc(/C=N/NC(=O)CNc2cccc3ccccc23)cc1 | -41.8 | 7.31 µM [falling, partial curve] | 8.2 µM [falling, partial curve] |
| CCCC(=O)Nc1ccc2c(c1)nc(CN1CCCC1)n2C | – | – | 29.1 µM [falling, single point] |
| CC1CCCC(N2CCN(C(=O)c3cccc(F)c3)CC2)C1 (centres undefined) | 19.1 | – | 29.1 µM [rising, single point] |
| CCOc1ccc(C(=O)Nc2cnn(Cc3ccc(Cl)c(Cl)c3)c2)cc1 | 2.3 | – | 18.4 µM [falling, single point] |
| O=C(Nc1nc2ccccc2s1)c1cnccn1 | 1.84 | 6.51 µM [falling, single point] | 6.51 µM [falling, single point] |
| COc1ccc(N2CC(C(=O)N3CCCC(C)C3)CC2=O)cc1 (centres undefined) | -2.76 | – | 29.1 µM [rising, single point] |
| COc1ccc(NC(=O)CCS(=O)(=O)c2ccc3c(c2)CCCN3C(C)=O)cc1Cl | – | 3.26 µM [rising, partial curve] | – |

| Structure (SMILES) | cell number change [%] | AC50 [1] | AC50 [2] |
| --- | --- | --- | --- |
| CCN(CC)CCNC(=O)CS(=O)Cc1nc(-c2ccccc2Cl)oc1C (centres undefined) | 5.06 | – | 6.51 µM [falling, single point] |
| Cc1ccc(NC(=O)CN2C(=O)N/C(=C/c3cc(C)n(-c4cccc(C(=O)O)c4)c3C)C2=O)cc1 | 23.1 | – | 0.092 µM [rising, full curve] |
| CCNC(=O)NC(=O)C(C)OC(=O)c1oc2ccc(OCC)cc2c1C (centres undefined) | -0.517 | – | 0.58 µM [rising, single point] |
| CC(OC(=O)COc1ccc(Nc2ccccc2)cc1)C(=O)N(C)c1ccccc1 (centres undefined) | -15.7 | – | – |
| CC(=O)c1cccc(NC(=O)NC(C)c2ccncc2)c1 (centres undefined) | -25.9 | – | – |
| COc1ccc(N2CCN(C(=O)CSc3nnc4ncccn34)CC2)cc1 | -21.7 | – | – |
| COc1cccc(/C(O)=C2\C(=O)C(=O)N(c3ccccn3)C2c2ccccc2OC)c1 (centres undefined) | 4.04 | – | – |
| Fc1c(F)c(F)c(/C=N/NC(=S)Nc2cccnc2)c(F)c1F | 44.6 | 9.2 µM [rising, partial curve, poor fit] | – |
| CC1CN(CCCCOc2ccc(Cl)c3ccccc23)CC(C)O1 (centres undefined) | -46.6 | 8.2 µM [falling, partial curve, poor fit] | – |
| Cc1noc(/C=C/c2ccco2)c1S(=O)(=O)N1CCC(C(=O)NC(C)c2ccccc2)CC1 (centres undefined) | -5.83 | – | 1.16 µM [falling, single point] |
| O=C(CSc1nc2ccccc2c(=O)n1Cc1ccco1)Nc1cccc(O)c1 | 5.56 | – | – |
| Cc1nc2scc(C)n2c(=O)c1S(=O)(=O)NCCc1ccccc1 | -18.6 | – | – |
| CCC(C)NC(=O)c1cn(CCOC)c(=O)c2c1c1ccccc1n2C (centres undefined) | 25 | – | 4.61 µM [rising, single point] |
| O=C(Nc1cccc(O)c1)C1CC(c2c(F)cccc2Cl)=NO1 (centres undefined) | 16.4 | – | – |
| COc1ccc(C2=CC(=O)C[C@H](c3ccc(Cl)cc3)C2)cc1 | 4.92 | – | – |
| Cc1ccc(C(=O)c2cn(Cc3ccc(Cl)cc3)c3nc(C)ccc3c2=O)cc1 | 33.5 | 23.1 µM [rising, single point] | 23.1 µM [rising, partial curve, poor fit] |
| CCOc1ccc(/C=C/[N+](=O)[O-])c2ccccc12 | -46.7 | 23.1 µM [falling, single point] | 14.6 µM [falling, partial curve] |
| O=C(c1cncc(Br)c1)N1CCN(S(=O)(=O)c2ccccc2)CC1 | 15.3 | – | 6.51 µM [falling, single point] |
| CCN(Cc1ccccc1)C(=O)C1CCN(Cc2ccc(OC)c(OC)c2OC)CC1 | 4.86 | – | – |
| COc1cc(-c2nnc(SCc3cc(=O)oc4cc(O)c(O)cc34)o2)cc(OC)c1OC | 16.6 | – | 0.00517 µM [rising, full curve, poor fit] |
| O=C(CSc1nnc(-c2ccccc2)o1)Nn1cnnc1 | 1.89 | – | 29.1 µM [falling, single point] |

Some of these compounds in order of heavy-atom count, low to high.

| Structure (SMILES) | cell number change [%] | AC50 [1] | AC50 [2] |
| --- | --- | --- | --- |
| COc1ccc(C2=CC(=O)C[C@H](c3ccc(Cl)cc3)C2)cc1 | 4.92 | – | – |
| O=C(Nc1cccc(O)c1)C1CC(c2c(F)cccc2Cl)=NO1 (centres undefined) | 16.4 | – | – |
| O=C(c1cncc(Br)c1)N1CCN(S(=O)(=O)c2ccccc2)CC1 | 15.3 | – | 6.51 µM [falling, single point] |
| COc1ccc(NC(=O)CCS(=O)(=O)c2ccc3c(c2)CCCN3C(C)=O)cc1Cl | – | 3.26 µM [rising, partial curve] | – |

The listing continues.

| Structure (SMILES) | cell number change [%] | AC50 [1] | AC50 [2] |
| --- | --- | --- | --- |
| CCCCCc1cc(=O)oc2c(C(CCN3CCN(c4ccccc4)CC3)c3ccc4c(c3)OCO4)c(OC)cc(OC)c12 (centres undefined) | 5.52 | – | 0.651 µM [rising, full curve, poor fit] |
| Cc1cc(C)c2cc(CN(Cc3nnnn3C3CCCCC3)CC3CCCO3)c(=O)[nH]c2c1 (centres undefined) | -13.7 | – | 1.64 µM [rising, partial curve] |
| O=C1CN(c2nc(-c3cccnc3)nc3scc(-c4ccccc4)c23)CCN1 | – | – | 6.51 µM [rising, partial curve, poor fit] |
| COc1ccc(-n2c(N3CCN(C)CC3)nc3sc4c(c3c2=O)CCCCC4)cc1 | -1.52 | – | 6.51 µM [falling, single point] |
| COc1ccc(Cl)cc1NC(=O)C1CSC(c2ccncc2)=N1 (centres undefined) | 13.3 | – | 6.51 µM [rising, single point] |
| CC1(C)NC(=O)N(CCOc2cccc(Cl)c2Cl)C1=O | 6.81 | – | – |
| CN(C)S(=O)(=O)c1cccc(NC(=S)N/N=C/C(c2ccccc2)c2ccccc2)c1 | 12.3 | – | 18.4 µM [rising, single point] |
| COc1ccccc1OCc1nc(C#N)c(NCCCn2ccnc2)o1 | 9.45 | – | 29.1 µM [rising, single point] |
| O=C(/C=C/Nc1ccc(F)cc1)c1ccc(Br)cc1 | 19.2 | – | – |
| CCOC(=O)c1cnc(SCc2nc(N)nc(Nc3ccc(F)cc3)n2)nc1N | 18.5 | – | – |
| CC(C)(C)CC(=O)NC(=S)NCCc1ccccc1 | 39.3 | – | 3.66 µM [falling, single point] |
| CC(C)Nc1nnc(SCC(=O)Nc2ccc(F)cc2)s1 | 2.14 | – | – |
| COc1ccc(S(=O)(=O)N2CCCC2C(=O)Nc2ccc(C)cc2)cc1 (centres undefined) | 33.2 | 1.46 µM [rising, partial curve] | 2.91 µM [rising, partial curve] |
| O=C(c1cccc(Oc2ccc([N+](=O)[O-])cc2Cl)c1)N1CCOCC1 | -11.3 | – | 1.64 µM [rising, partial curve, poor fit] |
| COc1ccc(C2NC(=O)C(=O)/C2=C(\O)c2ccc(Cl)cc2)cc1OC (centres undefined) | 14.8 | – | 6.51 µM [rising, full curve, poor fit] |
| O=c1c2cccnc2[nH]c(=S)n1CCC1=CCCCC1 | -2 | – | 32.6 µM [falling, single point] |
| O=C(COc1ccccc1)N=C1SC2CS(=O)(=O)CC2N1c1ccc(F)cc1F (centres undefined) | 20.2 | – | 0.517 µM [rising, full curve, poor fit] |
| COc1ccc(CC(O)CC2c3c(cc4c(c3OC)OCO4)CCN2C)cc1 (centres undefined) | – | – | 5.17 µM [rising, partial curve] |
| O=C(Nc1ccc(F)cc1)Nc1cc(OCC(F)(F)F)cc(OCC(F)(F)F)c1 | -29.8 | – | – |
| Cc1ccc(NC(=O)NNC(=O)CN2C(=O)COc3ccccc32)cc1 | 6.52 | – | – |
| COCCn1c(SCC(=O)NC2CC2)nnc1-c1ccco1 | 30.2 | – | 2.59 µM [rising, full curve, poor fit] |
